## Library screen at single concentrations

Source: ChEMBL document CHEMBL3988442, “University of Dundee, Small-Polar-MMV Screening Library” (2021).

Results are given as percent effect.
The controls that fix the scale are not given in the record; negative values are as filed.
This is an unselected part of the compounds tested.

T. brucei: 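Whole-parasite assay of Trypanosoma brucei over 72 hours; the read-out is not stated. Concentration: 30 µM. Higher reads as stronger inhibition (inferred: compounds with an IC50 in retests scored well above the rest). Values scatter widely below zero; nearly all retest evidence comes from the higher of the two concentrations used. Size under these conditions: about 64,000 compounds, about 940 of them at 50% or above in at least one test.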
Toxoplasma: 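Assay of Toxoplasma gondii numbers, read through their beta-galactosidase reporter with a colour substrate. Concentration: 10 µM. Higher reads as fewer parasites (inferred from which compounds were picked for retests). Size under these conditions: about 67,000 compounds, about 260 of them at 50% or above in at least one test.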

{"compound": "O=C(O)C(F)(F)F.[H][C@]12CCC[C@@H](CN3CCOCC3)[C@@]1([H])CN(c1ccc(C)nn1)C2", "Toxoplasma": -9.543}
{"compound": "CN(C)Cc1nn(C)c2c1CCN(C(=O)c1cccnc1)C2", "T. brucei": 30.37, "Toxoplasma": 5.38}
{"compound": "COCCN1CCC2(CC1)CC1(CCN(S(C)(=O)=O)CC1)N(C)C2=O.O=C(O)C(F)(F)F", "T. brucei": -38.8, "Toxoplasma": -1.705}
{"compound": "CSCCNc1ccc(C(=O)N(C)Cc2ccc3ccccc3n2)cn1", "T. brucei": -2.818, "Toxoplasma": -4.326}
{"compound": "Cc1cccc(CNC(Cc2ccsc2)c2nccs2)n1", "stereo": "centres undefined", "Toxoplasma": -8.721}
{"compound": "O=C(CCn1ccccc1=O)Nc1ccc(F)c(Cl)c1", "T. brucei": -26.66, "Toxoplasma": 3.03}
{"compound": "CCOC(C)c1noc(CN2CCN(c3ccncc3)CC2)n1", "stereo": "centres undefined", "T. brucei": 5.182, "Toxoplasma": -4.906}
{"compound": "CCn1ncc2c1C(COCC1CC1)N(Cc1nccs1)CC2.O=C(O)C(F)(F)F.O=C(O)C(F)(F)F", "stereo": "centres undefined", "Toxoplasma": -13.65}
{"compound": "O=S(=O)(NCC1COc2ccccc2C1)N1CCCCC1", "stereo": "centres undefined", "T. brucei": 0.6798, "Toxoplasma": 20.58}
{"compound": "O=C(c1ccco1)N1CCCC(c2cc(C(F)F)n3ncnc3n2)C1", "stereo": "centres undefined", "T. brucei": -9.115, "Toxoplasma": -2.242}
{"compound": "Cc1cc(C2CCCN(S(=O)(=O)N(C)C)C2)ccn1", "stereo": "centres undefined", "T. brucei": -40.56, "Toxoplasma": -0.2113}
{"compound": "CCN(CC)C(CNS(=O)(=O)NCc1ccccc1)c1ccco1", "stereo": "centres undefined", "T. brucei": 23.26, "Toxoplasma": 4.689}
{"compound": "CCc1nc2n(n1)CC(NCc1nnc(C(C)C)o1)CC2", "stereo": "centres undefined", "T. brucei": -40.18, "Toxoplasma": 2.349}
{"compound": "COc1ccc(NC(=O)C2CCCO2)cc1OCc1cccnc1", "stereo": "centres undefined", "T. brucei": -33.58, "Toxoplasma": -13.48}
{"compound": "[H][C@@]12CS(=O)(=O)C[C@]1([H])N(C(=O)c1cccs1)CCN2Cc1[nH]cnc1C", "T. brucei": -3.949, "Toxoplasma": -5.699}
{"compound": "CC[C@H]1COCCN1C(=O)c1cnc(N2CCN(C)CC2)nc1C", "T. brucei": -62.51, "Toxoplasma": 5.37}
{"compound": "Cc1nc(CN(C)C2CCN(Cc3cnc(C)s3)C2)no1", "stereo": "centres undefined", "Toxoplasma": -0.5236}
{"compound": "COc1cc(C2C3=C(COC3=O)Nc3[nH]nc(C)c32)cc(Br)c1O", "stereo": "centres undefined", "T. brucei": 4.294, "Toxoplasma": 14.41}
{"compound": "Cc1cnn(CC(C)NCc2nc(-c3cccnc3)no2)c1", "stereo": "centres undefined", "T. brucei": -5.112, "Toxoplasma": 0.5816}
{"compound": "CN(C)S(=O)(=O)N1CCN(c2cc(-n3cccc3)ncn2)CC1", "T. brucei": -9.186, "Toxoplasma": 7.402}
{"compound": "Cc1ncncc1-c1ccnc(N)n1", "T. brucei": -18.65, "Toxoplasma": 24.86}
{"compound": "CSCc1noc(CN2CCC3(CC2)CC(=O)N(CC=C(C)C)C3)n1", "T. brucei": -16.41, "Toxoplasma": -0.6554}
{"compound": "CCCN1CCN(C(=O)Cn2nc(C(F)(F)F)c(Br)c2C2CC2)CC1", "T. brucei": -15.58, "Toxoplasma": 18.42}
{"compound": "Cl.O=C(c1cccc(F)c1)N1CCCC1c1ncc2c(n1)CCNC2", "stereo": "centres undefined", "T. brucei": 17.89, "Toxoplasma": -23.18}
{"compound": "Cc1n[nH]c(C)c1CCCN(C)Cc1c[nH]nc1-c1ccc(F)cc1", "T. brucei": -53.72, "Toxoplasma": 5.727}
{"compound": "CN(C)C(=O)CNC(=O)c1ccn(-c2ccc3ccccn23)n1", "T. brucei": 30.02, "Toxoplasma": -3.508}
{"compound": "COc1ccccc1CNC(=O)N1CCCC(NS(C)(=O)=O)C1", "stereo": "centres undefined", "T. brucei": -59.62, "Toxoplasma": -5.493}
{"compound": "O=C(O)C(F)(F)F.[H][C@@]12CN(C(=O)COC)CCC[C@]1(C(=O)N(C)C)CN(c1ccccn1)C2", "T. brucei": 40.06, "Toxoplasma": 2.457}
{"compound": "O=C(O)C(F)(F)F.O=C1CC[C@]2(CC[C@@H](NCc3ccsc3)CC2)N1Cc1ccccc1", "T. brucei": 12.28, "Toxoplasma": 1.22}
{"compound": "Cc1ccccc1CN(C)CC(O)COCc1ccccc1Cl", "stereo": "centres undefined", "T. brucei": -56.21, "Toxoplasma": 14.52}
{"compound": "COCCOC1CCN(C(C(=O)O)c2ccc(F)c(Cl)c2)CC1", "stereo": "centres undefined", "T. brucei": 4.587, "Toxoplasma": -4.118}
{"compound": "Cc1nc(C2CCN(C[C@H](C)CO)CC2)cc(N2CCOCC2)n1", "T. brucei": -25.43, "Toxoplasma": 0.8246}
{"compound": "COCCN(Cc1ccco1)c1ncc(C#N)cc1Cl", "Toxoplasma": 0.04049}
{"compound": "COc1c(CNCc2ccc(C(=O)NC3CC3)cc2)c(C)nn1C.Cl", "T. brucei": 9.826, "Toxoplasma": -5.231}
{"compound": "O=c1cnc2ccccc2n1CCCn1cccn1", "T. brucei": -33.67, "Toxoplasma": -22.65}
{"compound": "O=C(O)C(F)(F)F.[H][C@@]12CCCO[C@]1([H])[C@H](NC(=O)c1cnoc1C)CN(Cc1ccoc1)C2", "T. brucei": -28.27, "Toxoplasma": -40.77}
{"compound": "Cc1cc(C)n(C2CN(C(=O)Cn3c(C)cc(=O)c4ccccc43)C2)n1", "T. brucei": 7.66, "Toxoplasma": -15.42}
{"compound": "CN(C)C(=O)CN1CCCCC1c1nc(N)ncc1-c1ccccc1", "stereo": "centres undefined", "T. brucei": -4.454, "Toxoplasma": -1.608}
{"compound": "NC(=O)CCSCc1ccc(Br)c(F)c1", "T. brucei": 3.438, "Toxoplasma": 1.766}
{"compound": "CC(C)NC(=O)NCc1ccnc(N(C)C)n1", "T. brucei": -94.1, "Toxoplasma": 5.949}
{"compound": "O=C(NCCN1CCOCC1)Nc1cc(F)ccc1-n1cccn1", "T. brucei": -202.4, "Toxoplasma": -11.81}
{"compound": "COc1cccc(-n2cc(CN(C)C(=O)c3cc[nH]n3)cn2)c1", "T. brucei": -19.93, "Toxoplasma": 7.132}
{"compound": "CC(=O)c1cccc(OCCCC(=O)N(C)CC(N)=O)c1", "T. brucei": -29.79, "Toxoplasma": -3.919}
{"compound": "CC(C)NC(=O)NCc1ccc(C(=O)NC(C)Cn2cccn2)cc1", "stereo": "centres undefined", "Toxoplasma": 2.742}

5 of the entries, repeated:

{"compound": "CCn1ncc2c1C(COCC1CC1)N(Cc1nccs1)CC2.O=C(O)C(F)(F)F.O=C(O)C(F)(F)F", "stereo": "centres undefined", "Toxoplasma": -13.65}
{"compound": "O=C(O)C(F)(F)F.[H][C@@]12CN(C(=O)COC)CCC[C@]1(C(=O)N(C)C)CN(c1ccccn1)C2", "T. brucei": 40.06, "Toxoplasma": 2.457}
{"compound": "[H][C@@]12CS(=O)(=O)C[C@]1([H])N(C(=O)c1cccs1)CCN2Cc1[nH]cnc1C", "T. brucei": -3.949, "Toxoplasma": -5.699}
{"compound": "CSCCNc1ccc(C(=O)N(C)Cc2ccc3ccccc3n2)cn1", "T. brucei": -2.818, "Toxoplasma": -4.326}
{"compound": "COc1cccc(-n2cc(CN(C)C(=O)c3cc[nH]n3)cn2)c1", "T. brucei": -19.93, "Toxoplasma": 7.132}